These results are taken from PMC8205012.

Amino acid sequences for entries named in this document (tags omitted). A change or cut given only in a name is not applied to a line headed by its entry.
UniProt P26951: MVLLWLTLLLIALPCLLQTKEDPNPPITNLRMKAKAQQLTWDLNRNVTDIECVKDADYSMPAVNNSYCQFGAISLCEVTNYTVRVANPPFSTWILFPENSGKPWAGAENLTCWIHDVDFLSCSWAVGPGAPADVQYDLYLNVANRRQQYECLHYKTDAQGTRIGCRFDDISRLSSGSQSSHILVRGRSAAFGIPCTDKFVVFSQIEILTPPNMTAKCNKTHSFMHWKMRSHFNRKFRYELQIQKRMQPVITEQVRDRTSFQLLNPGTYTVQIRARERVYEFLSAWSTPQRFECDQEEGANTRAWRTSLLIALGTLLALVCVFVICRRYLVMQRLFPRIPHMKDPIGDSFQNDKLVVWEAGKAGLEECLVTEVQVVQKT

For at least one entry, the source does not settle the construct or the ends of the probe. At least one result comes from cells or an extract, where the contact may be indirect.

Data set [1] concerns the target CD123 (IL-3 receptor alpha) (UniProt P26951). In words: flow cytometry and confocal microscopy. The note with it: Molm-13 cells, 50 nM (flow), 37 C, no binding to CD123-negative RCH-ACV, Cell binding: 1e5 cells, 50 nM (flow) or 5 uM (confocal) FAM-DNA, 30 min, PBS wash, protein on the cell surface, label: FAM (direct binding), single-stranded DNA, letters put together from the description. On the technique in general: Flow cytometry measures light scatter and fluorescence of single cells or particles in a stream.

Data set [2] shares this target. In words: competition with a labelled probe. The note with it: Molm-13 cells, displaces 50 nM FAM-labeled CD123 antibody; Cell binding: 1e5 cells, 50 nM (flow) or 5 uM (confocal) FAM-DNA, 37 C, 30 min, PBS wash; protein on the cell surface; label: FAM (direct binding); single-stranded DNA; letters put together from the description.

Regarding “TGCGTGTGTACTGTGTCTGGTCCCGTAGCTACTAGCGAACTCCCTGCCTCTTAGGGATTTGGGCGG [SS30]”, the binding result in data set [1] and in data set [2] was “binds” in each case.
